Reference: publication PMC10097714
For part of these data: Weaker means in comparison with the reference protein, sequence or condition of that experiment. For part of these data: The exact form of at least one protein or probe is not confirmed.

Experiments:
TDP-43 G287S (human) = TDP-43 G287S (human) (UniProt Q13148); test: EMSA (agarose); conditions: EMSA: 20 mM PIPES-NaOH pH 6.8, 150 mM NaCl, 0.8 mM MgCl2, 10% glycerol, 0.1 mg/ml BSA, 0.1 mg/ml poly-dI-dC, 25 C, gel 0.5x TBE pH 6.8; recombinant protein; residues 1-414; protein details: untagged; label: 5' Cy3, 3' Alexa Fluor 647
TDP-43 M337V (human) = TDP-43 M337V (human) (UniProt Q13148); test: EMSA (agarose); conditions: EMSA: 20 mM PIPES-NaOH pH 6.8, 150 mM NaCl, 0.8 mM MgCl2, 10% glycerol, 0.1 mg/ml BSA, 0.1 mg/ml poly-dI-dC, 25 C, gel 0.5x TBE pH 6.8; recombinant protein; residues 1-414; protein details: untagged; label: 5' Cy3, 3' Alexa Fluor 647
GST-GR G287S (human) [1] = molecular target: GST-GR G287S (human) (UniProt Q13148); test: UV cross-linking, SDS-PAGE; conditions: n.s. vs WT; UV cross-linking: EMSA buffer without poly-dI-dC; recombinant protein; protein details: GST; label: 5' Cy3, 3' Alexa Fluor 647
GST-GR M337V (human) [2] = molecular target: GST-GR M337V (human) (UniProt Q13148); test: UV cross-linking, SDS-PAGE; conditions: n.s. vs WT; UV cross-linking: EMSA buffer without poly-dI-dC; recombinant protein; protein details: GST; label: 5' Cy3, 3' Alexa Fluor 647
GST-GR G287S (human) [3] = molecular target: GST-GR G287S (human) (UniProt Q13148); test: CD; conditions: 1 uM each, positive peak increased; recombinant protein; protein details: GST
GST-GR M337V (human) [4] = molecular target: GST-GR M337V (human) (UniProt Q13148); test: CD; conditions: 1 uM each, positive peak increased; recombinant protein; protein details: GST
GST-GR G287S + His-RRM = test: GST pull-down, western blot; conditions: reduced His-RRM recruitment; pull-down: PIPES pH 6.8, 145 mM NaCl, 5.4 mM KCl, 0.8 mM MgCl2, 1.8 mM CaCl2, 0.05% Tween-20, 10% glycerol, 4 C; recombinant protein; protein details: GST,His
GST-GR WT + His-RRM = test: GST pull-down, western blot; conditions: ternary complex, no RRM-GR interaction without RNA; pull-down: PIPES pH 6.8, 145 mM NaCl, 5.4 mM KCl, 0.8 mM MgCl2, 1.8 mM CaCl2, 0.05% Tween-20, 10% glycerol, 4 C; recombinant protein; protein details: GST,His
GST-GR M337V + His-RRM = test: GST pull-down, western blot; conditions: reduced His-RRM recruitment; pull-down: PIPES pH 6.8, 145 mM NaCl, 5.4 mM KCl, 0.8 mM MgCl2, 1.8 mM CaCl2, 0.05% Tween-20, 10% glycerol, 4 C; recombinant protein; protein details: GST,His
GST-GR G287S (human) [5] = molecular target: GST-GR G287S (human) (UniProt Q13148); test: SPR; conditions: 50 nM protein, no significant difference from WT; 3' DNA dA16 tail on RNA; SPR: 20 mM PIPES pH 6.8, 12 mM KCl, 0.8 mM MgCl2, 150 mM NaCl, 0.05% Tween-20, 25 C; recombinant protein; protein details: GST
GST-GR M337V (human) [6] = molecular target: GST-GR M337V (human) (UniProt Q13148); test: SPR; conditions: 50 nM protein, no significant difference from WT; 3' DNA dA16 tail on RNA; SPR: 20 mM PIPES pH 6.8, 12 mM KCl, 0.8 mM MgCl2, 150 mM NaCl, 0.05% Tween-20, 25 C; recombinant protein; protein details: GST
[7] = molecular target: GST-RRMwm R151A,D247A (human) (UniProt Q13148); test: EMSA (agarose); conditions: reduced at low concentration, near WT at 10x; EMSA: 20 mM PIPES-NaOH pH 6.8, 150 mM NaCl, 0.8 mM MgCl2, 10% glycerol, 0.1 mg/ml BSA, 0.1 mg/ml poly-dI-dC, 25 C, gel 0.5x TBE pH 6.8; recombinant protein; residues 101-261; protein details: GST; label: 3' Alexa Fluor 647

## GGGGAAAAGGGAGGGAUGGG [Cy3-PSD-Ax647]
TDP-43 G287S (human)
  binding result: binds more weakly
TDP-43 M337V (human)
  binding result: binds more weakly
GST-GR G287S (human) [1]
  binding result: binds
GST-GR M337V (human) [2]
  binding result: binds

## UGGGGGGGGCGGGUGGGAUGGGA [CaMKIIa G4]
GST-GR G287S (human) [3]
  binding result: binds
GST-GR M337V (human) [4]
  binding result: binds
GST-GR G287S + His-RRM
  binding result: binds more weakly
GST-GR WT + His-RRM
  binding result: binds
GST-GR M337V + His-RRM
  binding result: binds more weakly

## GGGGAAAAGGGAGGGAUGGGAAAAAAAAAAAAAAAA [PSD-95 G4 dA16]
GST-GR G287S (human) [5]
  binding result: binds
GST-GR M337V (human) [6]
  binding result: binds

## UGGGGGGGGCGGGUGGGA [Cy3-CaMKII-Ax647]
TDP-43 G287S (human)
  binding result: binds more weakly
TDP-43 M337V (human)
  binding result: binds more weakly
GST-GR G287S (human) [1]
  binding result: binds
GST-GR M337V (human) [2]
  binding result: binds

## UGUGUGUGUGUGUGUGUGUG [UG10-Ax647]
[7]
  binding result: binds more weakly

## UGGGGGGGGCGGGUGGGAUGGGAAAAAAAAAAAAAAAAA [CaMKIIa G4 dA16]
GST-GR G287S (human) [5]
  binding result: binds
GST-GR M337V (human) [6]
  binding result: binds
